Data source: PubChem BioAssay AID504744 (Drosophila RNAi Screening Center, 2011)
The deposit covers about 23,000 reagents; shown is a random part of those that have a named target and a result. Over the whole deposit, 98 (0.43%) got an active call. 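Only hit calls are given; the phospho-dAkt signals, z-scores and hit direction were not deposited.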 Names joined by + are all predicted targets of the reagent.

- Screen: 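Uncover factors, including feedback loops, that control dAkt activation in fly cells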 (primary screen)
- Cell system: Drosophila Kc167 cells
- Knock-down reagent: long dsRNA against Drosophila genes, 250 ng dsRNA per well of a 384-well plate
- Timing: 3 days of knock-down, then overnight serum-free starvation before stimulation
- Treatment: bovine insulin at 387 nM for 10 minutes after 12 h without serum
- Measurement: 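In-cell antibody fluorescence for phospho-dAkt in each well over DNA-dye signal, with log2 residuals expressed as z-scores adjusted for cell count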
- Call rule: 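Hit in the insulin screen when the two-replicate mean z-score is more extreme than plus or minus 2.5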

gene knocked down	dsRNA	Call
Oatp58Da (Organic anion transporting polypeptide 58Da)	DRSC04365	inactive
CG32269 + CG32270	DRSC08195	inactive
CG5160	DRSC02821	inactive
Taf9 (TBP-associated factor 9)	DRSC20326	inactive
CG31560	DRSC12136	inactive
CG32036	DRSC10362	inactive
Jon99Cii (Jonah 99Cii)	DRSC16858	inactive
Jon99Cii (Jonah 99Cii)	DRSC22574	inactive
CG31681	DRSC00107	inactive
CG18368	DRSC06731	inactive
CCDC53 (Coiled-coil domain containing 53)	DRSC03056	inactive
CG1677	DRSC18116	inactive
CG30197	DRSC22394	inactive
Mkk4 (MAP kinase kinase 4)	DRSC16739	inactive
Cpr76Bd (Cuticular protein 76Bd)	DRSC11063	inactive
Mdr49 (Multi drug resistance 49)	DRSC07466	inactive
CG5021	DRSC10469	inactive
Pp1-87B (Protein phosphatase 1 at 87B)	DRSC16794	inactive
CG32409	DRSC08780	inactive
CG3788	DRSC04418	inactive
dysc (dyschronic)	DRSC10273	inactive
dysc (dyschronic)	DRSC11040	inactive
dysc (dyschronic)	DRSC22334	inactive
dysc (dyschronic)	DRSC22824	inactive
RpL7-like + CG34164	DRSC02836	inactive
RpL7-like + CG34164	DRSC02837	inactive
CG17625	DRSC15249	inactive
CG32284	DRSC08025	inactive
Cpr23B (Cuticular protein 23B)	DRSC00555	inactive
Grip128	DRSC20167	inactive
CG13559	DRSC04197	inactive
Cndp2 (Cytosolic non-specific dipeptidase 2)	DRSC04873	inactive
CG7963	DRSC16355	inactive
Ugt36E1 (UDP-glycosyltransferase family 36 member E1)	DRSC02599	inactive
Aps (Aps pyrophosphatase)	DRSC10629	inactive
CG2126	DRSC15418	inactive
CG31908	DRSC21864	inactive
sktl (skittles)	DRSC04715	active
RhoGAP54D (Rho GTPase activating protein at 54D)	DRSC06990	inactive
bsd (back seat driver)	DRSC05953	inactive
sds22	DRSC17052	inactive
Timp (Tissue inhibitor of metalloproteases)	DRSC17082	inactive
CG32163	DRSC09442	inactive
CG30184	DRSC22277	inactive
Rbbp5 (Retinoblastoma binding protein 5)	DRSC11778	inactive
hui (hase und igel)	DRSC05977	inactive
CG13958 (retired record)	DRSC02300	inactive
CG6937 + btn	DRSC16917	inactive
CG14695	DRSC14918	inactive
Ctu1 (Cytosolic thiouridylase subunit 1)	DRSC07069	inactive
CG13558	DRSC04196	inactive
CG3492	DRSC04373	inactive
Neu2 (Neuroectoderm-expressed 2)	DRSC11819	inactive
Agpat1 (1-Acylglycerol-3-phosphate O-acyltransferase 1)	DRSC19879	inactive
Agpat1 (1-Acylglycerol-3-phosphate O-acyltransferase 1)	DRSC19880	inactive
pk (prickle)	DRSC06178	inactive
pk (prickle)	DRSC07664	inactive
pk (prickle)	DRSC22156	inactive
CG11030	DRSC02120	inactive
Cpr64Ad (Cuticular protein 64Ad)	DRSC08284	inactive
Atg3 (Autophagy-related 3)	DRSC10736	inactive
Atg3 (Autophagy-related 3)	DRSC21758	inactive
Cdlc2 (Cytoplasmic dynein light chain 2)	DRSC00743	inactive
eIF5 (eukaryotic translation initiation factor 5)	DRSC20165	inactive
CG31013	DRSC16542	inactive
Cadps (Calcium-dependent secretion activator)	DRSC21057	inactive
Cadps (Calcium-dependent secretion activator)	DRSC22200	inactive
CG1572	DRSC19686	inactive
fiz (fezzik)	DRSC20188	inactive
Gr59e (Gustatory receptor 59e)	DRSC04276	inactive
CG9662	DRSC00723	inactive
CG18545	DRSC15343	inactive
Sbf (SET domain binding factor)	DRSC16852	inactive
CG16798	DRSC02517	inactive
beat-IIIa (beaten path IIIa)	DRSC01575	inactive
beat-IIIa (beaten path IIIa)	DRSC01577	inactive
beat-IIIa (beaten path IIIa)	DRSC02178	inactive
nau (nautilus)	DRSC17011	inactive
fon (fondue)	DRSC02507	inactive
azot (ahuizotl)	DRSC06051	inactive
bw (brown)	DRSC04005	inactive
bw (brown)	DRSC04677	inactive
CG33012	DRSC06287	inactive
CG33012	DRSC06288	inactive
CG31515	DRSC13610	inactive
nAChRalpha5 (nicotinic Acetylcholine Receptor alpha5)	DRSC01360	inactive
nAChRalpha5 (nicotinic Acetylcholine Receptor alpha5)	DRSC01946	inactive
nAChRalpha5 (nicotinic Acetylcholine Receptor alpha5)	DRSC01947	inactive
nAChRalpha5 (nicotinic Acetylcholine Receptor alpha5)	DRSC22785	inactive
CG2926	DRSC12321	inactive
CG14332	DRSC14811	inactive
CG33288	DRSC11484	inactive
CG14043	DRSC02368	inactive
CG15617	DRSC06570	inactive
Uros1 (Uroporphyrinogen III synthase 1)	DRSC18191	inactive
Bcat (Branched chain amino acid transaminase)	DRSC19756	inactive
htk (hat-trick)	DRSC20029	inactive
htk (hat-trick)	DRSC20031	inactive
RhoL (Rho-like)	DRSC16824	inactive
CG14490	DRSC06461	inactive
COX6AL2 + Ir75d	DRSC10081	inactive
O-fut1 (O-fucosyltransferase 1)	DRSC06138	inactive
ana1 (anastral spindle 1)	DRSC16079	inactive
ana1 (anastral spindle 1)	DRSC21825	inactive
CG12426	DRSC14516	inactive
Mal-B2 (Maltase B2)	DRSC02417	inactive
Vps25 (Vacuolar protein sorting 25)	DRSC06486	inactive
